Assay results as given in PMC12002173.
No constants are given. Whether binding was seen depends on the method and setting. In cells and extracts the contact can be indirect. A yes stands for co-enrichment or nearness to the bait. Other partners may have been found. No binding means not detected with the bait.

Molecular target: T1, PHLPP2 (PH domain leucine-rich repeat-containing protein phosphatase 2), full-length human (human) (UniProt Q6ZVD8)
T1 sequence: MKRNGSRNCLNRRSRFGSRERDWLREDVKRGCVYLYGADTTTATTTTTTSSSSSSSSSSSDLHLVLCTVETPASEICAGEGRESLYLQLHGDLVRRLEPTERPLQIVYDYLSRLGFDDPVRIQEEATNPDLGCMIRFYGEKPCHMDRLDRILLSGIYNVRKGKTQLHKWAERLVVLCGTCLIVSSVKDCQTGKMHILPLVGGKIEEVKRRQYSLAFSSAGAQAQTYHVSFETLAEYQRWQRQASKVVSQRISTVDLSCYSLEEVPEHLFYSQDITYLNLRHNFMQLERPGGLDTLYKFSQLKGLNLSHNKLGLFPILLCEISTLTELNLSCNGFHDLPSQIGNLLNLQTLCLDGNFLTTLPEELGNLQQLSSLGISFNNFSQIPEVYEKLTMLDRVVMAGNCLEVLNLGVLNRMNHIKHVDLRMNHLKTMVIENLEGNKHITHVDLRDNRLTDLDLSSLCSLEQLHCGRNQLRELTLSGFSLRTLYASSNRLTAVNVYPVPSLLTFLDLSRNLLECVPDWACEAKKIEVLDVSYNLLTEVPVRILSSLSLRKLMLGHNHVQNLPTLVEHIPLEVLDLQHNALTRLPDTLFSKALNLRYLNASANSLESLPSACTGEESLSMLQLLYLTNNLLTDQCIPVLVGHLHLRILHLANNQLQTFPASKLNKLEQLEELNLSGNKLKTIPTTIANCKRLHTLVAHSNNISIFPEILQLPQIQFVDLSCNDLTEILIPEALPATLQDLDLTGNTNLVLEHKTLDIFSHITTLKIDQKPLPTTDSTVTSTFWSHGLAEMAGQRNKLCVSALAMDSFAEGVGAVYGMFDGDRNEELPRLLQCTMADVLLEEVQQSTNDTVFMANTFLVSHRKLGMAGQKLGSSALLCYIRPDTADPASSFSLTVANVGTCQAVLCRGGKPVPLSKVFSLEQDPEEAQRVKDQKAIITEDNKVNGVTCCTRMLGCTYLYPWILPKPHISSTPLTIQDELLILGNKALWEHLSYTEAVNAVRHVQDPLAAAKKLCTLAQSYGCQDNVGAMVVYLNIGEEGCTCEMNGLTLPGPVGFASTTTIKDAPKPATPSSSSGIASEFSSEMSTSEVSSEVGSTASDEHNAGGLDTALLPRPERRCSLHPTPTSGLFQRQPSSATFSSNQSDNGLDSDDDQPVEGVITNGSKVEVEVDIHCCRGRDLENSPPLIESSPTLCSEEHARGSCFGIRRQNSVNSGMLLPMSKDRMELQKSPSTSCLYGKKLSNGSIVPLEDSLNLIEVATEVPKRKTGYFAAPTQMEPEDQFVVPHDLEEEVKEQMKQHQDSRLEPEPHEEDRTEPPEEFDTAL
Experiment: affinity purification with mass spectrometry; peptide fingerprinting mass spectrometry of GST-tagged PHLPP2 purified from Sf9 cells by affinity, ion exchange and size-exclusion chromatography; Sf9 proteins found in the preparation

Substance	binding
Spodoptera frugiperda PP2A A-subunit	no binding
Spodoptera frugiperda PP2A B55 (B) regulatory subunit	no binding
Spodoptera frugiperda PP2A catalytic (C) subunit (enzyme)	no binding
